No constants are given. Whether binding was seen depends on the method and setting. In cells and extracts the contact can be indirect. Binding calls can cover weak binding; strength is not graded here. Sequences can lack the tags named with a protein.
Molecular target: T1, ASK1 C-terminal (CT: 955–1,374 amino acids) domain, HA-tagged (human) (UniProt Q99683)
T1 sequence: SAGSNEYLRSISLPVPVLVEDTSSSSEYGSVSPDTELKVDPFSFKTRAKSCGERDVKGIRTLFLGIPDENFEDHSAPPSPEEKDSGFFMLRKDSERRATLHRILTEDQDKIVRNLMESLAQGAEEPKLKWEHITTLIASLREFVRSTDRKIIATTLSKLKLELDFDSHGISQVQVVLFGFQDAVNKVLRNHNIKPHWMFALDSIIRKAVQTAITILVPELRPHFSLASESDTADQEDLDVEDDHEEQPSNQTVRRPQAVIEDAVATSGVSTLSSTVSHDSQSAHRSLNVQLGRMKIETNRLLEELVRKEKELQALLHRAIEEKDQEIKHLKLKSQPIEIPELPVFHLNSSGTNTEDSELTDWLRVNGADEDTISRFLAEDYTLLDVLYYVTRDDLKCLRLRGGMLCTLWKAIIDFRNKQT
Assay: co-IP; HEK293 cells cotransfected; lysates in HBST buffer (10 mM HEPES pH 7.4, 150 mM NaCl, 0.5% Triton-X-100) immunoprecipitated with anti-HA affinity gel; bound Vif detected by western blot

## HIV-1 NL4-3 Vif
  binding: binds
